# Assay: Henry solubility constant Hcp at 298.15 K (mol/(m3 Pa))
compound,measurement,setting,value
CCCCCCCCCO [1-nonanol],Henry solubility constant Hcp,reference: Lei et al. (2007),0.14
same,Henry solubility constant Hcp,reference: Shunthirasingham et al. (2013),0.11

# Source: Sander's compilation of Henry's law constants
